This is one part of the list.
How the values were obtained:
Experiment in all cases: log2 fold change, soluble protein after heating vs DMSO (PISA); higher = thermal stabilisation; K562 cells, 10 uM, 30 min; active = over 0.2 and 3.5 SD of the protein, either way, in both replicates (recomputed)
[1] = compound: C1=CC=C(C=C1)[C@H](COC2=CC3=C(C=C2)NC(=O)N3)NC(=O)C4=CC=CN(C4=O)CC5=CC(=C(C=C5)F)F
Summary of the method: (§1)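 Aliquots of K562 cells (2×10^6 cells/mL) treated with 10 μM compound for 30 min were heated for 3 min over 48°C-58°C. After pooling and extraction in PBS with 0.5% NP-40 at 4°C, soluble protein from a 21,000xg, 90 min spin was quantified by TMTpro 16plex LC-MS/MS with channel sums equalised. Thermal stability is expressed against control samples, from duplicates, as a log2 fold change.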

Protein sequences, listed by entry. Tags and fused reporters are not part of them. Lines headed by an entry give the natural chain unless they say otherwise; changes in a name come on top.
UniProt Q7KYR7: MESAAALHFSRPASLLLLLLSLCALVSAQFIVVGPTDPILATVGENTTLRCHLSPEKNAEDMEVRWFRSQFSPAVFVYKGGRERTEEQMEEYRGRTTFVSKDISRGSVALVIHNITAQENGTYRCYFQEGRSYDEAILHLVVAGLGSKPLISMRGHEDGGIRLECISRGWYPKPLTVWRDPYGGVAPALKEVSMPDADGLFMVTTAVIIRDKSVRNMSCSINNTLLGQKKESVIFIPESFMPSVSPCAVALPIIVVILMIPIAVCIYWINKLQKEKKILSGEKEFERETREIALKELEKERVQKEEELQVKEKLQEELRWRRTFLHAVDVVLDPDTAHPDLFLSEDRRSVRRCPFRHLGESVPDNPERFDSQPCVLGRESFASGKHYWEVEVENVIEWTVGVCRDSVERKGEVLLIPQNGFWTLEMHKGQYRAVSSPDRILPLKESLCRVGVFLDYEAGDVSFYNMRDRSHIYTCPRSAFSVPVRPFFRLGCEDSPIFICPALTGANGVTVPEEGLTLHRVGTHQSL
UniProt Q14012: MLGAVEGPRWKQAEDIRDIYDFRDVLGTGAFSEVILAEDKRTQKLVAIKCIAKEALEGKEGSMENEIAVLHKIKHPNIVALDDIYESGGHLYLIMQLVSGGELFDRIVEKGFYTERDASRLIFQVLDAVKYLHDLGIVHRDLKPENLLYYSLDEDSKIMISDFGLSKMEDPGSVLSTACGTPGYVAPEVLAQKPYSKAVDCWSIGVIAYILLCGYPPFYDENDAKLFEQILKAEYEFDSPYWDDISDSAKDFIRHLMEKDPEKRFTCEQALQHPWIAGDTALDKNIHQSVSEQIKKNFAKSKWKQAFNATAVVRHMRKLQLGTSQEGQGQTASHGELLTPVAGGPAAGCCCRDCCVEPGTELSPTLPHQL
UniProt Q8N1A6: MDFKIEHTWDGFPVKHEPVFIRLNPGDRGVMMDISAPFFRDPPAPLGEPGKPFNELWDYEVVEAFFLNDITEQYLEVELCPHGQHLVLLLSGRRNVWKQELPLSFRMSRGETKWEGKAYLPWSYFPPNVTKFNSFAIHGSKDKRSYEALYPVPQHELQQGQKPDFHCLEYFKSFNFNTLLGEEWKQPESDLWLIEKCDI
UniProt P04632: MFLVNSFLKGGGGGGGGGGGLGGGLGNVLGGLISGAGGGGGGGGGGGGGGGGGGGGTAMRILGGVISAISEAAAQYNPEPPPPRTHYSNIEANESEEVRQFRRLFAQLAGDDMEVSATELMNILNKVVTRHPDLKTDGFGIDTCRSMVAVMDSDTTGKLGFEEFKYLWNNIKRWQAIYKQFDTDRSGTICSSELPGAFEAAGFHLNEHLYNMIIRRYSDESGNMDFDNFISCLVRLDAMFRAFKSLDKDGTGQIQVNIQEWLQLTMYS
UniProt Q9UFG5: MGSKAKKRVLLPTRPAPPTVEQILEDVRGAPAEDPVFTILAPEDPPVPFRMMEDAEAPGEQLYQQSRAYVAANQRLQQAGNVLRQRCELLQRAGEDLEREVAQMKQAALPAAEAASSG
UniProt Q8WVQ1: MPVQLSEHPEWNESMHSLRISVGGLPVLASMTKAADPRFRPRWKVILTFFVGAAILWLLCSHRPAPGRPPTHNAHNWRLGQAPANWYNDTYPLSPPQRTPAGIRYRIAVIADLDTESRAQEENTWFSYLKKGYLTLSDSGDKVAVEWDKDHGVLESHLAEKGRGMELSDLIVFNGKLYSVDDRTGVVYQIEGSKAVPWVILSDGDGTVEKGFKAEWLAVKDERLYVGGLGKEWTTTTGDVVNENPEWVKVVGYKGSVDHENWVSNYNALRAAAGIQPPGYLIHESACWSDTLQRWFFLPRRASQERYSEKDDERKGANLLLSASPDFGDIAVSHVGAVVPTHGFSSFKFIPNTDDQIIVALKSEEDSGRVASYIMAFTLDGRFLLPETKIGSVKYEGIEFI
UniProt P35219: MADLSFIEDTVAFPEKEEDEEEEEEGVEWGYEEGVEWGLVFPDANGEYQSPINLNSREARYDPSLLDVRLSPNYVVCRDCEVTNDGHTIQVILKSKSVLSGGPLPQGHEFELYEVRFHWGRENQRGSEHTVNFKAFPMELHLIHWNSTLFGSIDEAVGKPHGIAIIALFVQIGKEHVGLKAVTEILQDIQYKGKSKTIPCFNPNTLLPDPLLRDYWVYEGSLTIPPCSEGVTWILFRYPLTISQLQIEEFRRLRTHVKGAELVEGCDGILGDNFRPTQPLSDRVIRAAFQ
UniProt Q8N1Q1: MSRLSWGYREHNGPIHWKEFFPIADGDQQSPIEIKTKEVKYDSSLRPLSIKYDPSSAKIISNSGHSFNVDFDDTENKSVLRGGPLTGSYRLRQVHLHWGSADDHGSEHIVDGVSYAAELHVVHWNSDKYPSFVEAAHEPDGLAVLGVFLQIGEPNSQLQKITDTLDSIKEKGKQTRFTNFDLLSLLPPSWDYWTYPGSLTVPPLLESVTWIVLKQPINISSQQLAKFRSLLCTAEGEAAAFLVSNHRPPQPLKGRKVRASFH
UniProt Q8N6N3: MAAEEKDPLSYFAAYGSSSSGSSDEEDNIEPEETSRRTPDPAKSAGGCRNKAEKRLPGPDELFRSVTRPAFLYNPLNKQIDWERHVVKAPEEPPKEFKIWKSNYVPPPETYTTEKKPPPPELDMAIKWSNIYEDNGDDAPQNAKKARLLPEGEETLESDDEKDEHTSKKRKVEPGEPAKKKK
UniProt Q9P1Z2: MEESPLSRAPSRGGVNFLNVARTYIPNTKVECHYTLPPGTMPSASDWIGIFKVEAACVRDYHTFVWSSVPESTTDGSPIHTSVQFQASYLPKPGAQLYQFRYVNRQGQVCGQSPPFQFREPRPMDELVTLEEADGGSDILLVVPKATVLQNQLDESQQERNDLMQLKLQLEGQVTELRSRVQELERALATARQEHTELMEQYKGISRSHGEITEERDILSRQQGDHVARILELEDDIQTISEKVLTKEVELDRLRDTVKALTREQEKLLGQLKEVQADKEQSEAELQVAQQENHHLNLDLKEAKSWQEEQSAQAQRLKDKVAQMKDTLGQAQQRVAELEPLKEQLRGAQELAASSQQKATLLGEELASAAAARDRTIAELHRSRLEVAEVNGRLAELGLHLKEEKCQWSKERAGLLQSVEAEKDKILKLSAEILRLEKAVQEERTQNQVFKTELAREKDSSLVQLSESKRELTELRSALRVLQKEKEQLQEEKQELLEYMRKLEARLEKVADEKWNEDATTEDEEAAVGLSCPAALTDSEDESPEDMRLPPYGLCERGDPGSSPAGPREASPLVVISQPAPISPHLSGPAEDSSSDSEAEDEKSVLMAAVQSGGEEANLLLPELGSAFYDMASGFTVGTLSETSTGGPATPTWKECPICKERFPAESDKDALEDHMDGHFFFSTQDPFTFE
UniProt O14523: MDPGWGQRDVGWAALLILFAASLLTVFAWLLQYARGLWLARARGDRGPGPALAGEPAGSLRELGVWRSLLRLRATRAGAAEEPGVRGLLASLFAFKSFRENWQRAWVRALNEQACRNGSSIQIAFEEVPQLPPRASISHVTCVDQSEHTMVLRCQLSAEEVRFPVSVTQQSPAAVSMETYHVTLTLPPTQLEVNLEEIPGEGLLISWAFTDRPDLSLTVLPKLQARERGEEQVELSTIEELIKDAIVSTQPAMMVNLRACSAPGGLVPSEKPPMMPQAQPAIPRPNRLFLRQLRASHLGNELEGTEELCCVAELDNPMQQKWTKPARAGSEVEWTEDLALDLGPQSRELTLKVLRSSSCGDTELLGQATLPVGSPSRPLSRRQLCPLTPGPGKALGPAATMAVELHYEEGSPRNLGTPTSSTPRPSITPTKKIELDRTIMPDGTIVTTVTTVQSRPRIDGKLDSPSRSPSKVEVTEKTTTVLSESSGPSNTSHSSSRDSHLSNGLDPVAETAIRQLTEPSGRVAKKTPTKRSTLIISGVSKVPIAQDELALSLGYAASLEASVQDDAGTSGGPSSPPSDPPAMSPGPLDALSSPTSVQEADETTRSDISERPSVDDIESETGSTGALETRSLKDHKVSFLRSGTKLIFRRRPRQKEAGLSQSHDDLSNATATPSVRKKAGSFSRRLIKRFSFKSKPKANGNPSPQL
UniProt P07384: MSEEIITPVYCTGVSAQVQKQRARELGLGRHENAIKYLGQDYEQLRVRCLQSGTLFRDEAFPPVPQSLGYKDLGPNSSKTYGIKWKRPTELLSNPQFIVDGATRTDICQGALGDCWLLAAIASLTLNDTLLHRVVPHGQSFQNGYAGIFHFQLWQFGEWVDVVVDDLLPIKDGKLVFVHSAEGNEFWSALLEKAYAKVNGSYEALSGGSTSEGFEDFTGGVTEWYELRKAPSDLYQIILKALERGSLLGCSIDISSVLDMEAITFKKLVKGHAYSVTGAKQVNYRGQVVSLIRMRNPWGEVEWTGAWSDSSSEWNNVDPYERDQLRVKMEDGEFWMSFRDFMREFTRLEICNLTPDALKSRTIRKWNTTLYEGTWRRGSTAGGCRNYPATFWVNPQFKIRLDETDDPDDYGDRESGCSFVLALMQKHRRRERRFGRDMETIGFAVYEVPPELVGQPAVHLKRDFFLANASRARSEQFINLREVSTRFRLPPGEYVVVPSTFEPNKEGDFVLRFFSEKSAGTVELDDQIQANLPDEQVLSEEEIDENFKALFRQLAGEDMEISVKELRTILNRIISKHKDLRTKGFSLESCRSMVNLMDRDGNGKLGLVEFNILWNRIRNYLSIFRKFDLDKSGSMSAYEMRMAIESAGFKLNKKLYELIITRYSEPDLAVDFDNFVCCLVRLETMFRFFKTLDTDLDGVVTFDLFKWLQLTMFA
UniProt Q8WUQ7: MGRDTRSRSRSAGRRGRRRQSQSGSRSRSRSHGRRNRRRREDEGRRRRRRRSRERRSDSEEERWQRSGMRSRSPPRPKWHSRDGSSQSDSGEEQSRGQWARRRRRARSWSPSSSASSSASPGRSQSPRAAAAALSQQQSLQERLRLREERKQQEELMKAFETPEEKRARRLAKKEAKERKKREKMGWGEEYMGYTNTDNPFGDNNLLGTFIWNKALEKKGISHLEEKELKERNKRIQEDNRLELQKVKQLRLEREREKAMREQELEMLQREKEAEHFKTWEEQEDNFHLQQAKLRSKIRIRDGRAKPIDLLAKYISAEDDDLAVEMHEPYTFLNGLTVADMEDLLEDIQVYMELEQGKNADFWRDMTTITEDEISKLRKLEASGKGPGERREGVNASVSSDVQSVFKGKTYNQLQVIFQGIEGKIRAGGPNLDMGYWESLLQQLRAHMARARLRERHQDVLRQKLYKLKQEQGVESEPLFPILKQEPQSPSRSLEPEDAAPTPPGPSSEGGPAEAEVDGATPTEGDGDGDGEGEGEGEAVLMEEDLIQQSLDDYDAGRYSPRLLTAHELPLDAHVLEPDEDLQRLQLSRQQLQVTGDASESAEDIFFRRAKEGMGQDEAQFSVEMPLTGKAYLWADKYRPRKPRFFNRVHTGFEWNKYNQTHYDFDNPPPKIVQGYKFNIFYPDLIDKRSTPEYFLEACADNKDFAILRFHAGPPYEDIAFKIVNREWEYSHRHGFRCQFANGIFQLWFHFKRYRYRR
UniProt Q6P1X6: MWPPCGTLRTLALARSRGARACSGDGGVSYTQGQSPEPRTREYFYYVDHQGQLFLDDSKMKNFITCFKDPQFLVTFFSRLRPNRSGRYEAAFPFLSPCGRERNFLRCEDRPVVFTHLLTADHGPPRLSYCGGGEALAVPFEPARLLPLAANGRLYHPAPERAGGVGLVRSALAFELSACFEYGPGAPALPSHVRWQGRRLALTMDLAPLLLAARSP
UniProt P47756, whole entry, looked up: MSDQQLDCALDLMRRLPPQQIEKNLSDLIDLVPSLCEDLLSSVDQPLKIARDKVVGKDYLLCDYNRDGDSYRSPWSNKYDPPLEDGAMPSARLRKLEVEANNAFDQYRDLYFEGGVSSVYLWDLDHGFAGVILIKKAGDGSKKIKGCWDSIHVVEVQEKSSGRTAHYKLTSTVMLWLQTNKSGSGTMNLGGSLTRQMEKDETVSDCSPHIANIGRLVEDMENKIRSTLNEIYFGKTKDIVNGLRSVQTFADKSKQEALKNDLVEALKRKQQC
UniProt Q8IYL3: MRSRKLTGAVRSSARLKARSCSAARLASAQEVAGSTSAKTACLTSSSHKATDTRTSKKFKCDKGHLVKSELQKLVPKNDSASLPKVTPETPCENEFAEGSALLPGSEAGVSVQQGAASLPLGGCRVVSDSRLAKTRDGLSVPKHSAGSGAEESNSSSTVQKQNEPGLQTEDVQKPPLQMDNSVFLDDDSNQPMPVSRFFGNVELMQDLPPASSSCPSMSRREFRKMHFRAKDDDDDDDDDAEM
UniProt Q5T6V5: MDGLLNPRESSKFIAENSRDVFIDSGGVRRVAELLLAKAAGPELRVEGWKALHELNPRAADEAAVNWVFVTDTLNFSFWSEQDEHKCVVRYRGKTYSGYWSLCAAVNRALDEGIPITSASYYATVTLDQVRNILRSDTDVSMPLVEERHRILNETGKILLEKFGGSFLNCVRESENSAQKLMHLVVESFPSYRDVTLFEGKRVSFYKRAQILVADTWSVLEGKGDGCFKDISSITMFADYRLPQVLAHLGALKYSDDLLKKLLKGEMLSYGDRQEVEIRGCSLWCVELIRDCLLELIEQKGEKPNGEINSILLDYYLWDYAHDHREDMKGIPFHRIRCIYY

[2] = compound: CC1=C(SC2=C1C(=N[C@H](C3=NN=C(N32)C)CC(=O)N)C4=CC=C(C=C4)Cl)C
Summary of the method: as §1

[3] = compound: CC1=C2C(=CC=C1)N=C(N(C2=O)C3=CC=CC=C3C)CN4C=NC5=C(N=CN=C54)N
Summary of the method: as §1

[4] = compound: Cc1sc2c(c1C)C(c1ccc(Cl)cc1)=N[C@@H](CC(=O)OC(C)(C)C)c1nnc(C)n1-2
Summary of the method: as §1

[5] = compound: c1ccc([C@@H]2C[C@H]2NC2CCNCC2)cc1
Summary of the method: as §1

Measured: log2 fold change

C3AR1 (UniProt Q16581)
inactive: [1] -0.284

BTN2A1 (UniProt Q7KYR7)
inactive: [1] 0.054 | [2] 0.154 | [3] 0.086 | [4] -0.131 | [5] -0.041

CAPN1 (UniProt E9PLX0)
inactive: [1] -0.185

CAMK1 (UniProt Q14012)
inactive: [1] -0.141

C4orf33 (UniProt Q8N1A6)
inactive: [1] -0.041 | [2] 0.176 | [3] 0.066 | [4] 0.024 | [5] -0.003

CAPNS1 (UniProt P04632)
inactive: [1] 0.032 | [2] 0.024 | [3] 0.031 | [4] 0.009 | [5] 0

C3orf38 (UniProt Q5JPI3)
inactive: [1] 0.056 | [2] 0.07 | [3] 0.246 | [4] 0.026 | [5] -0.027

C19orf25 (UniProt Q9UFG5)
inactive: [1] -0.016 | [2] 0.067 | [3] 0.471 | [4] -0.036 | [5] -0.065

C11orf98 (UniProt E9PRG8)
inactive: [1] 0.079 | [2] -0.279 | [3] -0.209 | [4] 0.17 | [5] 0.045

CANX isoform 2 (UniProt P27824)
inactive: [1] 0.078 | [2] -0.022 | [3] -0.04 | [4] 0.012 | [5] 0.018

CAP1 isoform 2 (UniProt Q01518)
inactive: [1] -0.189

C12orf73 (UniProt Q69YU5)
inactive: [1] -0.029 | [2] 0.116 | [3] -0.108 | [4] 0.03 | [5] 0.082

CANT1 (UniProt Q8WVQ1)
inactive: [1] -0.015 | [2] 0.014 | [3] 0.095 | [4] -0.033 | [5] 0.007

C1orf109 (UniProt Q9NX04)
inactive: [1] 0.05 | [2] 0.003 | [3] -0.164 | [4] 0.014 | [5] 0.076

CALM2 (UniProt P0DP24)
inactive: [1] 0.075 | [2] -0.016 | [3] -0.029 | [4] -0.022 | [5] 0.018

BTF3L4 (UniProt Q96K17)
inactive: [1] 0.004 | [2] 0.008 | [3] 0.028 | [4] -0.004 | [5] 0.015

C3orf33 (UniProt Q6P1S2)
inactive: [1] -0.018 | [2] 0.08 | [3] 0.048 | [4] -0.087 | [5] 0.009

CA8 (UniProt P35219)
inactive: [1] 0.006 | [2] 0.059 | [3] 0.052 | [4] 0.025 | [5] -0.045

C1QBP (UniProt Q07021)
inactive: [1] -0.02 | [2] 0.088 | [3] 0.032 | [4] -0.054 | [5] 0.009

C8orf33 isoform 2 (UniProt Q9H7E9)
inactive: [1] 0.16 | [2] -0.386 | [3] -0.505 | [4] 0.399 | [5] 0.018

C1GALT1C1 (UniProt Q96EU7)
inactive: [1] 0.02 | [2] -0.004 | [3] -0.085 | [4] 0.05 | [5] -0.067

CA13 (UniProt Q8N1Q1)
inactive: [1] 0.014 | [2] 0.128 | [3] 0.092 | [4] 0.254 | [5] -0.169

BTF3 (UniProt P20290)
inactive: [1] -0.002 | [2] -0.03 | [3] -0.029 | [4] -0.013 | [5] -0.004

CALU isoform 3 (UniProt O43852)
inactive: [1] 0 | [2] -0.003 | [3] -0.033 | [4] 0.02 | [5] 0.037

C1orf131 isoform 5 (UniProt Q8NDD1)
inactive: [1] 0.078 | [2] -0.192 | [3] -0.164 | [4] 0.11 | [5] 0.034

C1orf52 (UniProt Q8N6N3)
inactive: [1] 0.02 | [2] 0.042 | [3] 0.014 | [4] -0.01 | [5] 0.032

C5orf51 (UniProt A6NDU8)
inactive: [1] -0.017 | [2] 0.036 | [3] 0.136 | [4] -0.044 | [5] 0.006

C11orf24 (UniProt Q96F05)
inactive: [1] 0.042

C6orf89 isoform 2 (UniProt Q6UWU4)
inactive: [1] 0.04 | [2] 0.057 | [3] -0.016 | [4] 0.007 | [5] -0.105

CALCOCO1 (UniProt Q9P1Z2)
inactive: [1] -0.049 | [2] 0 | [3] 0.095 | [4] -0.013 | [5] 0.038

C7 (UniProt P10643)
inactive: [1] -0.022 | [2] 0.076 | [3] 0.001 | [4] -0.072 | [5] -0.045

C4A (UniProt P0C0L4)
inactive: [1] -0.158 | [2] -0.067 | [3] 0.127 | [4] -0.101 | [5] -0.01

CAD (UniProt P27708)
inactive: [1] -0.115 | [2] 0.048 | [3] -0.019 | [4] -0.005 | [5] -0.033

BZW1 isoform 3 (UniProt Q7L1Q6)
inactive: [1] -0.227 | [2] 0.002 | [3] 0.044 | [4] -0.044 | [5] -0.017

CAPN15 (UniProt O75808)
inactive: [1] 0.012

CALCOCO2 isoform 4 (UniProt Q13137)
inactive: [1] -0.036 | [2] -0.002 | [3] -0.04 | [4] 0.049 | [5] 0.026

C17orf80 (UniProt Q9BSJ5)
inactive: [1] 0.139 | [2] -0.014 | [3] -0.042 | [4] 0.037 | [5] -0.01

C2CD2L (UniProt O14523)
inactive: [1] 0.065 | [2] 0.031 | [3] 0.009 | [4] 0.01 | [5] 0.013

C11orf68 (UniProt Q9H3H3)
inactive: [1] -0.049 | [2] 0.062 | [3] 0.089 | [4] -0.017 | [5] 0.002

CAPZA1 (UniProt P52907)
inactive: [1] 0.013 | [2] 0.086 | [3] 0.073 | [4] -0.055 | [5] -0.025

CAPN1 (UniProt P07384)
inactive: [1] -0.004 | [2] 0.004 | [3] -0.055 | [4] -0.037 | [5] 0.013

C18orf32 (UniProt Q8TCD1)
inactive: [1] 0.053 | [2] 0.112 | [3] 0.028 | [4] 0.004 | [5] 0

C2CD5 isoform 4 (UniProt Q86YS7)
inactive: [1] 0.004 | [2] 0.052 | [3] 0.131 | [4] -0.027 | [5] 0.017

CALU isoform 4 (UniProt O43852)
inactive: [1] 0.058 | [2] 0.017 | [3] 0.058 | [4] 0.027 | [5] 0.017

C9orf78 (UniProt Q9NZ63)
inactive: [1] 0.001 | [2] -0.021 | [3] 0.005 | [4] 0.014 | [5] 0.044

CA1 (UniProt P00915)
inactive: [1] -0.007 | [2] 0.039 | [3] 0.019 | [4] 0.007 | [5] 0.018

C5orf22 (UniProt Q49AR2)
inactive: [1] -0.055 | [2] 0.071 | [3] 0.023 | [4] 0.041 | [5] 0.007

C11orf54 (UniProt Q9H0W9)
inactive: [1] 0.014 | [2] 0.049 | [3] -0.038 | [4] 0.019 | [5] -0.033

BUB1B isoform 3 (UniProt O60566)
inactive: [1] -0.077 | [2] -0.004 | [3] 0.1 | [4] 0.01 | [5] -0.002

CACTIN isoform 2 (UniProt Q8WUQ7)
inactive: [1] 0.052 | [2] 0.097 | [3] 0.126 | [4] 0.135 | [5] 0.092

3 records drawn at random from those above, as already listed:
C11orf54 (UniProt Q9H0W9)
inactive: [1] 0.014 | [2] 0.049 | [3] -0.038 | [4] 0.019 | [5] -0.033

CACTIN isoform 2 (UniProt Q8WUQ7)
inactive: [1] 0.052 | [2] 0.097 | [3] 0.126 | [4] 0.135 | [5] 0.092

BUB1B isoform 3 (UniProt O60566)
inactive: [1] -0.077 | [2] -0.004 | [3] 0.1 | [4] 0.01 | [5] -0.002

Continuation.

C8orf82 (UniProt Q6P1X6)
inactive: [1] 0.024 | [2] -0.043 | [3] 0.055 | [4] 0.001 | [5] 0.026

CAPZB isoform 2 (UniProt P47756)
inactive: [1] -0.011 | [2] 0.007 | [3] 0.006 | [4] 0.05 | [5] 0.024

C1orf174 (UniProt Q8IYL3)
inactive: [1] 0.051 | [2] 0.114 | [3] -0.048 | [4] 0.013 | [5] -0.001

C9orf64 (UniProt Q5T6V5)
inactive: [1] -0.15 | [2] 0.054 | [3] 0.097 | [4] 0.052 | [5] -0.066

CALB1 (UniProt P05937)
inactive: [1] 0.001 | [2] 0.009 | [3] -0.045 | [4] -0.068 | [5] 0.026

C2CD2 (UniProt Q9Y426)
inactive: [1] -0.022 | [2] -0.066 | [3] -0.076 | [4] -0.051 | [5] 0.105
